# Results reported in PubChem BioAssay AID662 (National Center for Advancing Translational Sciences (NCATS), 2007).
# The other results are listed elsewhere or left out. Further columns of the screen follow, without active or inactive calls. Compounds called inactive in the main read-out are mostly missing here. Words in brackets tell the shape of the fitted curve; partial curves, single points and poor fits give uncertain potencies. Peptide text beside a SMILES is read from it. * marks the point of attachment. Cbz = O=C(OCc1ccccc1)*
# Experiment: Cell signaling CRE-BLA (Fsk stim)
# Conditions: CHO CRE-bla reporter (cAMP response element driving beta-lactamase), forskolin EC10, beta-lactamase ratio; measured here: 460 nm blue channel
# Outline: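 AC50 values, positive or negative, reflect shifts in EC10 NKH 477-induced CRE-bla reporter activity in CHO cells. Incubation lasted 3 h at 37 °C before CCF4 substrate (2 h, room temperature) and ratiometric 460/530 nm reading.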
row,Structure (SMILES),AC50
1,O=C(CSc1nc2ccccc2o1)Nc1ccccc1,"0.01 µM [falling, full curve]"
2,COc1cccc(Cn2c(=O)cnc3cncnc32)c1,"6.31 µM [rising, partial curve]"
3,COC(=O)[C@@]1(Cc2ccccc2)[C@H]2c3cc(C(=O)N4CCCC4)n(Cc4ccccn4)c3C[C@H]2CN1C(=O)c1ccccc1,"25.1 µM [rising, partial curve]"
4,COC(=O)c1ccc2c(=O)n(CC3CCCO3)c(SCC(=O)Nc3ccccc3OC)nc2c1 (configuration not stated),"5.01 µM [rising, partial curve]"
5,COc1ccc(C(C)(C)C)cc1NC(=O)Nc1ccc2c(c1)OCO2,"10 µM [falling, single point]"
6,COc1ccc(Cn2nnnc2CN(Cc2cc3ccc(C)cc3[nH]c2=O)C2CCCC2)cc1,"12.6 µM [rising, partial curve]"
7,COc1ccc(-c2nn3c(-c4ccco4)nnc3s2)cc1OC,"6.31 µM [rising, partial curve]"
8,Cc1nc2scc(-c3ccccc3)c2c(=O)o1,"12.6 µM [falling, single point]"
9,COCCCNC(=O)CN(c1cccc(Cl)c1)S(C)(=O)=O,"0.631 µM [falling, full curve]"
10,Cc1ccccc1N1OC2C(=O)N(c3ccc(F)cc3)C(=O)C2C1c1ccccn1 (configuration not stated),"31.6 µM [falling, single point]"
11,O=C(O)c1ccc(-n2nc(C(F)(F)F)c3c2-c2ccoc2CC3)cc1,"12.6 µM [rising, partial curve]"
12,COc1cc(-c2nnc(Cn3cc(C(F)(F)F)ccc3=O)o2)cc(OC)c1OC,"12.6 µM [rising, partial curve]"
13,COC(=O)Nc1sc2c(c1C(=O)NCc1ccco1)CCC2,"10 µM [rising, single point]"
14,COCCCNC(=O)CN(C1CCCCC1)S(=O)(=O)c1ccc(C)cc1,"2.51 µM [rising, partial curve]"
15,Cn1c(=O)c2c(nc(NCc3ccco3)n2C/C=C/c2ccccc2)n(C)c1=O,"12.6 µM [falling, partial curve]"
16,COc1cccc(C(=O)Oc2cc(N)n(S(=O)(=O)c3ccc(C)cc3)n2)c1OC,"12.6 µM [falling, single point]"
17,COc1ccc2c(Cl)c(-c3nnco3)sc2c1,"10 µM [rising, single point]"
18,O=C(O)c1cccnc1C(=O)O,"31.6 µM [falling, single point]"
19,Cc1ccc(-c2csc3ncnc(-n4nc(C)cc4N)c23)cc1,"25.1 µM [rising, single point]"
20,N#Cc1cc2ccccc2nc1SCc1cccnc1,"10 µM [rising, partial curve]"
21,COCC(=O)N(Cc1cc2cc(OC)ccc2[nH]c1=O)c1ccc(C)cc1,"5.01 µM [falling, single point]"
22,CCN1CCC[C@H]1CNC(=O)c1c(O)c(Cl)cc(Cl)c1OC,"25.1 µM [falling, single point]"
23,COc1ccc(S(=O)(=O)N2CCC(C(=O)Nc3nnc(CCN4CCCCC4)s3)CC2)cc1,"0.00794 µM [falling, full curve, poor fit]"

# Some of the entries so far, tab-delimited:
row	Structure (SMILES)	AC50
2	COc1cccc(Cn2c(=O)cnc3cncnc32)c1	6.31 µM [rising, partial curve]
9	COCCCNC(=O)CN(c1cccc(Cl)c1)S(C)(=O)=O	0.631 µM [falling, full curve]

# The list goes on:

row,Structure (SMILES),AC50
1,Cc1cc(C)n(-c2ccc(C(=O)OCC(=O)c3c(N)n(C)c(=O)n(C)c3=O)cc2)n1,"3.16 µM [rising, full curve]"
2,O=C(Oc1ccc2ccccc2c1)c1ccco1,"1.58 µM [falling, partial curve, poor fit]"
3,c1cn(-c2cc(-c3ccc4c(c3)OCO4)ncn2)cn1,"5.01 µM [rising, full curve]"
4,CCN1C(=O)c2cccc3c(NC(=O)c4ccc5c(c4)OCCO5)ccc1c23,"3.98 µM [rising, full curve]"
5,Cc1cc(-n2nc(C)cc2C)n2ncc(-c3ccccc3)c2n1,"1.58 µM [falling, full curve]"
6,CCOC(=O)c1c(C)nc(-c2ccccc2)nc1N,"12.6 µM [rising, partial curve]"
7,C=CCOc1cccc(C2C(C(=O)c3ccco3)=C(O)C(=O)N2CCN(CC)CC)c1 (configuration not stated),"3.98 µM [falling, partial curve]"
8,CN(Cc1ccccc1)Cc1nc2c([nH]1)c(=O)[nH]c(=O)n2C,"0.158 µM [falling, partial curve, poor fit]"
9,CC(C)(C)OC(=O)N[C@@H](Cc1ccccc1)c1nnc(S(=O)(=O)Cc2ccccc2)o1,"6.31 µM [falling, partial curve]"
10,COc1ccc(-c2nc(C#N)c(N3CCCCCC3)o2)cc1,"5.01 µM [rising, partial curve]"
11,CCN1CCN(CCCNc2ncnc3nc[nH]c23)CC1,"2.51 µM [rising, full curve]"
12,COc1cc2sc(C)nc2c2sccc12,"1 µM [rising, partial curve]"
13,O=C(NCCc1csc(-c2ccccc2)n1)c1cccs1,"3.98 µM [falling, partial curve]"
14,CN(C)Cc1cn(CCC(=O)O)c2ccccc12,"5.01 µM [falling, partial curve]"
15,CN1CCN(c2ncc3nc(-c4ccccc4)c(=O)n(C4CC4)c3n2)CC1,"10 µM [rising, partial curve]"
16,COc1cccc(-c2cc(C(=O)N3CCCCC3C)no2)c1 (configuration not stated),"1 µM [rising, full curve, poor fit]"
17,CCOc1ccc(C2=Nn3c(nnc3-c3ccc(OC)cc3)SC2)cc1,"10 µM [rising, partial curve]"
18,CC(C)CCn1c(SCc2ccc(Cl)cc2)nc2c1c(=O)[nH]c(=O)n2C,"1.26 µM [rising, full curve]"
19,CC(C)C(NC(=O)OCc1ccccc1)C(=O)OCC(=O)N1C(C)CCCC1C (configuration not stated),"5.01 µM [falling, single point]"
20,COC(=O)c1ccccc1NC(=O)C(C)Oc1ccccc1 (configuration not stated),"2.51 µM [rising, full curve]"
21,N#Cc1ccc(NC(=O)c2cc3cc4c5c(c3oc2=N)CCCN5CCC4)cc1,"10 µM [rising, partial curve]"
22,Cc1cc(C(=O)OCC(=O)NCc2ccco2)c(C)n1-c1ccccc1,"25.1 µM [rising, single point]"
23,COC(=O)CCC(NC(=O)OCc1ccccc1)C(=O)NC(CC(C)C)C(=O)OC (configuration not stated) (Cbz-Glu(OMe)-Leu-OMe; configuration not given here),"0.00794 µM [falling, full curve, poor fit]"

row,Structure (SMILES),AC50
1,CN(C)c1ccc(-c2nccc(NCc3ccccc3)n2)cc1,"3.16 µM [rising, single point]"
2,CCCCCOC(=O)c1ccc(NC(=O)c2ccco2)cc1,"12.6 µM [rising, partial curve]"
3,Cc1cnnc2c1-c1no[n+]([O-])c1CC2,"0.00631 µM [falling, full curve, poor fit]"
4,C=CCn1c(SCC(=O)NCc2ccco2)nc2sc3c(c2c1=O)CCC3,"12.6 µM [rising, single point]"
5,COc1cccc(Cn2c(C3CC3)nc3ccc(NC(=O)c4ccco4)cc3c2=O)c1,"0.398 µM [rising, partial curve]"
6,Cc1ccc(S(=O)(=O)N2CCN(C)CC2)cc1-c1nnc2c3ccccc3c(C)nn12,"10 µM [rising, partial curve]"
7,COc1cc2c(cc1OC)-c1cc(OCc3cccnc3)nc(=O)n1CC2,"7.94 µM [rising, partial curve]"
8,Cc1ccc(-c2nc3ncccn3c2Nc2ccc3c(c2)OCCO3)o1,"3.98 µM [falling, partial curve]"
9,CCOC(=O)c1ccc2[nH]c3c(c2c1)CCCCC3=O,"6.31 µM [rising, partial curve]"
10,COc1ccccc1-n1c(SCC(=O)Nc2nnc(C)s2)nc2c(c1=O)SCC2,"12.6 µM [rising, single point]"
11,O=C(c1ccc(Cl)cc1)N1CCN(c2nc(N3CCCCC3)nc(N3CCCCC3)n2)CC1,"0.316 µM [rising, full curve]"
12,COc1ccc(N2C(=O)CCC(C(=O)c3ccccc3)=C2C)cc1,"1 µM [falling, partial curve, poor fit]"
13,CCc1ccc2[nH]c(=O)c(CN(Cc3ccccc3)Cc3nnnn3Cc3ccco3)cc2c1,"25.1 µM [falling, single point]"
14,COCCNC(=O)Cn1cnc2c1c(=O)n(C)c(=O)n2C,"0.251 µM [falling, full curve]"
15,O=C(O)CSC1CC(=O)N(c2ccc(Cl)c(Cl)c2)C1=O (configuration not stated),"20 µM [falling, single point]"
16,Nc1c2c(nc3ccn(-c4ccccc4)c(=O)c13)CCCCC2,"15.8 µM [rising, single point]"
17,COC(=O)[C@@]1(Cc2ccc(F)cc2)[C@H]2c3cc(C(=O)N4CCCC4)n(Cc4cc(F)cc5c4OCOC5)c3C[C@H]2CN1C(=O)c1ccccc1,"0.398 µM [rising, full curve, poor fit]"
18,CCCCc1nc2ccccc2n2cc3c(=O)n(C)c(=O)n(C)c3c12,"1.58 µM [rising, full curve]"
19,COc1ccc(C2CC(C(F)(F)F)n3ncc(C(=O)NCc4cccnc4)c3N2)cc1OC (configuration not stated),"10 µM [rising, partial curve]"
20,O=C(Cn1nc(-c2ccccc2)c2ccccc2c1=O)Nc1ccc2c(c1)nc1n2CCOC1,"10 µM [rising, single point]"
21,Cc1cc(C(F)(F)F)n2ncc(-c3ccccc3)c2n1,"10 µM [rising, single point]"

# Looked up one by one from the list above (3):
row,Structure (SMILES),AC50
20,O=C(Cn1nc(-c2ccccc2)c2ccccc2c1=O)Nc1ccc2c(c1)nc1n2CCOC1,"10 µM [rising, single point]"
4,CCN1C(=O)c2cccc3c(NC(=O)c4ccc5c(c4)OCCO5)ccc1c23,"3.98 µM [rising, full curve]"
3,c1cn(-c2cc(-c3ccc4c(c3)OCO4)ncn2)cn1,"5.01 µM [rising, full curve]"
